Where a name gives a salt, the structure may show the parent alone. ± gives the standard deviation of the averaged measurements. What follows is the remainder of the data, with few or none of the lowest values.
Tests used:
[1] = test system: V-C8 (BRCA2-deficient hamster cells); experiment: normalised cell viability (fraction of plate median); higher = more viable cells (less toxic); conditions: 5 µM
In short: (§1)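 In two screens, library drugs at 5 μM were given for 3 days (screen 1) or 6 days (screen 2) to hamster V-C8 cells without BRCA2 and V-C8 cells with BRCA2 restored, seeded 24 h earlier in 96-well plates. A resazurin assay gave the cell viability readout, expressed as modified robust per cent of sample against the plate median, with triplicate wells averaged.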

[2] = test system: V-C8 + BRCA2 (BRCA2-proficient hamster cells); experiment: as above; conditions: 5 µM
In short: as §1

Q: Which results are given for `CN1[C@@H]2CC[C@H]1C[C@@H](OC(=O)C(O)c1ccccc1)C2` (mixture of isomers) [Homatropine hydrobromide (R,S)]?
A: normalised cell viability ([1]; treatment time: 3 days): 1.06 ± 0.026; normalised cell viability ([1]; treatment time: 6 days): 1.01 ± 0.013; normalised cell viability ([2]; treatment time: 3 days): 1.04 ± 0.044; normalised cell viability ([2]; treatment time: 6 days): 1.04 ± 0.012

— the supplement of paper PMC6609913
